Patent publication US20250382331A1, “Carrier Peptide Fragment and Use Thereof” (TOAGOSEI CO., LTD., priority 2022, published 2025)
Some entries share one result that the patent states for a list of compounds.

Tested on: WS-1 cells
Experiment: Evaluation on cell toxicity of carrier peptide fragment (CCK-8)
Assay type: cell-based, human
Conditions: 24 hours

**Q.** Which cell toxicity (concentration as high as 100 M (so in the source)) does the source give for “Ac-KKRTLRKSNSRKKR-FAM (N-acetyl; C-terminal FAM dye) [Example 1]” here?
**A.** The cell toxicity was “hardly observed”.

**Q.** And the “cell viability compared to the example in which 1.67% of DMSO was added” value (sample concentration 100 μM)?
**A.** Its value is “did not decrease”.
